{
  "source": "patent US20100173332A1",
  "about": "“Method for the Fluorescent Detection of Nitroreductase Activity Using Nitro-Substituted Aromatic Compounds” (Auckland Uniservices Limited, priority 2006, published 2010)",
  "data": [
    {"test": "Fluorescent emission of amine reporter molecules in phosphate buffer (multiplex suitability)", "type": "physicochemical", "conditions": "10 μM, 100 mM phosphate buffer pH 7.0", "units": {"fluorescent output at Ex/Em 295/370": "fluorescent units", "fluorescent output at Ex/Em 340/510": "fluorescent units", "fluorescent output at Ex/Em 440/540": "fluorescent units"}, "values": [
      {"smiles": "CN(C)CCNC(=O)c1cc(N)cc2c(=O)c3ccccc3[nH]c12", "note": "[Compound 18, 2-Amino-N-[2-(dimethylamino)ethyl]-9-oxo-9,10-dihydro-4-acridinecarboxamide]", "fluorescent output at Ex/Em 295/370": 0.78, "fluorescent output at Ex/Em 340/510": 12.0, "fluorescent output at Ex/Em 440/540": 347.9},
      {"smiles": "COC(=O)CCCNS(=O)(=O)c1ccc2cccc(N)c2c1", "note": "[Compound 22, Methyl 4-{[(8-amino-2-naphthyl)sulfonyl]amino}butanoate]", "fluorescent output at Ex/Em 295/370": 0.0, "fluorescent output at Ex/Em 340/510": 461.8, "fluorescent output at Ex/Em 440/540": 0.75},
      {"smiles": "Nc1ccc2cn[nH]c2c1", "note": "[Compound 23, 6-aminoindazole]", "fluorescent output at Ex/Em 295/370": 683.3, "fluorescent output at Ex/Em 340/510": 1.2, "fluorescent output at Ex/Em 440/540": 0.05}
    ]}
  ]
}
